# PubChem BioAssay AID686937 | Drosophila RNAi Screening Center | 2013
# Screen: 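Knock-downs that reduce output of a secreted reporter enzyme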 (primary screen)
# System: Drosophila S2 cells expressing secreted horseradish peroxidase
# Knock-down reagent: long dsRNA against Drosophila genes
# Duration: about 5.5 days (5 days dsRNA, then 12 h reporter induction)
# Challenge: reporter expression induced after 5 days of dsRNA, read 12 h later; inducer not stated
# Read-out: 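Chemiluminescent measurement of peroxidase in the medium 12 h after reporter induction, following 5 days of dsRNA, given as a z-score per plate; higher means more secretion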
# Direction: z-score: higher = more reporter secreted into medium
# In all, the deposit lists about 23,000 reagents; below is an unselected part of those with a known target gene and a result. 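Reduced-secretion tags in replicate 1 do not always agree with the z-scores; no criterion for assigning the tags was given.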 The numbers tell different reagents against one gene apart. Names joined by + are all predicted targets of the reagent. Not stated in the record: the amount of reagent.
Target gene,reagent,"z-score, replicate 1","z-score, replicate 2"
CAH3 (GeneID 31804),1,0,0.38
Moe (GeneID 31816),1,0.36,0.32
Nazo (GeneID 40976),1,-0.48,-0.62
CG12253 (GeneID 47730),1,0.63,0.2
CG17177 (GeneID 39601),1,0.55,0.27
Xe7 (GeneID 40699),1,0.47,-0.18
CG30046 (GeneID 36334),1,0.37,0.12
CG2104 (GeneID 40702),1,0.13,0.45
AlaRS-m (GeneID 38595),1,0.26,0.32
CG7246 (GeneID 31833),1,-2.61,-2.06
APC10 (GeneID 36975),1,-0.6,-0.44
CG13443 (GeneID 37351),1,0.74,0.47
NSD (GeneID 43351),1,0.37,0.55
CG32148 (GeneID 251924),1,-0.32,-0.06
st (GeneID 39836),1,0.34,0.5
Obp56e (GeneID 37267),1,0.43,0.27
CG15706 (GeneID 36799),1,0.25,0.37
osp (GeneID 34850),1,-0.17,0.02
osp (GeneID 34850),2,0.42,0.34

No new results follow: entries from further up.
Target gene,reagent,"z-score, replicate 1","z-score, replicate 2"
st (GeneID 39836),1,0.34,0.5
Obp56e (GeneID 37267),1,0.43,0.27
CG15706 (GeneID 36799),1,0.25,0.37
osp (GeneID 34850),1,-0.17,0.02

The list goes on:
Target gene,reagent,"z-score, replicate 1","z-score, replicate 2"
CatB (GeneID 34198),1,0.53,0.38
CG9921 (GeneID 32599),1,-1.26,0.15
CG15198 (GeneID 32065),1,0.32,0.76
CG17261 (GeneID 33522),1,-0.21,0.17
CG11403 (GeneID 31072),1,0.2,0.19
CarT (GeneID 35334),1,0.31,0.54
CG14160 (GeneID 39177),1,0.27,0.28
CG5084 (GeneID 37051),1,-0.03,-0.07
CG30075 (GeneID 246437),1,-0.13,0.24
CG31454 (GeneID 318744),1,0.14,0.42
CG31454 (GeneID 318744),2,-0.7,-0.7
CG14852 (GeneID 41765),1,0.72,0.73
CG9586 (GeneID 34241),1,0.31,0.26
CG7215 + Prx5,1,0.41,0.48
CG7215 + Prx5,2,0.23,0.16
